Source: the supplement of paper PMC6411743
± gives the standard deviation of the averaged measurements. This is a selection; strong and weak results do not stand in their true shares. Most values lie at the level of the controls, where differences are scatter.

Amino acid sequences for entries named in this document (tags omitted). A change or cut given only in a name is not applied to a line headed by its entry.
UniProt Q15397: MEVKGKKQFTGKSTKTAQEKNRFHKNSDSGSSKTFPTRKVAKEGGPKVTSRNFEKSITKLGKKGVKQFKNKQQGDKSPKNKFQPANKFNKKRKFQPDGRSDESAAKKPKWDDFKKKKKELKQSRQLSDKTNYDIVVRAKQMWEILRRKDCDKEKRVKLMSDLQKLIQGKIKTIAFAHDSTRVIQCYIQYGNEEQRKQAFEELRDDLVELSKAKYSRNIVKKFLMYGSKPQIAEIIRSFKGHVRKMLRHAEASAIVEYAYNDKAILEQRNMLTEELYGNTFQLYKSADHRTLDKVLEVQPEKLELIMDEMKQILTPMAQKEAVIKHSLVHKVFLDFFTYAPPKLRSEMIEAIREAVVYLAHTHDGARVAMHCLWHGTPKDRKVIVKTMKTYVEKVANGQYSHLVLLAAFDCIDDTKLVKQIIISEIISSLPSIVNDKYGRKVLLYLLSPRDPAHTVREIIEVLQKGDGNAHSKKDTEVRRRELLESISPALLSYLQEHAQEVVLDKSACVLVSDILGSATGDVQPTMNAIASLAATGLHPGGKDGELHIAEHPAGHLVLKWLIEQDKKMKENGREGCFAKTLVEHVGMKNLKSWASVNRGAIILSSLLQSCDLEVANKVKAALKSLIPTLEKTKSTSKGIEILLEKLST
UniProt Q15036: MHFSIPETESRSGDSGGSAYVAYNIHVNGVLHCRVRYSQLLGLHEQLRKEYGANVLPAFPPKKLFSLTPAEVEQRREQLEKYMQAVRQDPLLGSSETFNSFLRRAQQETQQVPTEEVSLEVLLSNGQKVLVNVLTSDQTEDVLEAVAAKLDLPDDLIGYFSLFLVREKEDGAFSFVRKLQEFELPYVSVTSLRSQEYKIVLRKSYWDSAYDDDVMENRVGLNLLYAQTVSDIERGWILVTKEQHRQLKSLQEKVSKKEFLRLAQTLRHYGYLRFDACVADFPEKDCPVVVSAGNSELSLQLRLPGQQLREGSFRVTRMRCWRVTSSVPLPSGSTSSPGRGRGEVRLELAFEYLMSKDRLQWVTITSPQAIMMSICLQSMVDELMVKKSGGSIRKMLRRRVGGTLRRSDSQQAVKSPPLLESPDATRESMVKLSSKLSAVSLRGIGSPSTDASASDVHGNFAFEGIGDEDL
UniProt Q15649: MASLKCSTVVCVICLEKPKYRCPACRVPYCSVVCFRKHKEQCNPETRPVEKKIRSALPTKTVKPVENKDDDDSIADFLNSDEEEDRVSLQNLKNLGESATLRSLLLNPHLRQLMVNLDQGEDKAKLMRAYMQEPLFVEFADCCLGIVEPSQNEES
UniProt Q15906, whole entry: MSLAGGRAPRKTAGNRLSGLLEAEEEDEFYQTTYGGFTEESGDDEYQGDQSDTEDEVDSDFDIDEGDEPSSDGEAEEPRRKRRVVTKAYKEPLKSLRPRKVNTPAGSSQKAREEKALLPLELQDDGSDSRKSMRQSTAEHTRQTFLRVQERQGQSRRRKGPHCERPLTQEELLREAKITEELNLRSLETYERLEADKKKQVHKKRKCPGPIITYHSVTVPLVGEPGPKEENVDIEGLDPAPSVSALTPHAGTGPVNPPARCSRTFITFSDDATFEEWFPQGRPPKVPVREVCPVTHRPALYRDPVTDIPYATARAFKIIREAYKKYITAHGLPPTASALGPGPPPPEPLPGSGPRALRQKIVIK
UniProt Q4G0J3: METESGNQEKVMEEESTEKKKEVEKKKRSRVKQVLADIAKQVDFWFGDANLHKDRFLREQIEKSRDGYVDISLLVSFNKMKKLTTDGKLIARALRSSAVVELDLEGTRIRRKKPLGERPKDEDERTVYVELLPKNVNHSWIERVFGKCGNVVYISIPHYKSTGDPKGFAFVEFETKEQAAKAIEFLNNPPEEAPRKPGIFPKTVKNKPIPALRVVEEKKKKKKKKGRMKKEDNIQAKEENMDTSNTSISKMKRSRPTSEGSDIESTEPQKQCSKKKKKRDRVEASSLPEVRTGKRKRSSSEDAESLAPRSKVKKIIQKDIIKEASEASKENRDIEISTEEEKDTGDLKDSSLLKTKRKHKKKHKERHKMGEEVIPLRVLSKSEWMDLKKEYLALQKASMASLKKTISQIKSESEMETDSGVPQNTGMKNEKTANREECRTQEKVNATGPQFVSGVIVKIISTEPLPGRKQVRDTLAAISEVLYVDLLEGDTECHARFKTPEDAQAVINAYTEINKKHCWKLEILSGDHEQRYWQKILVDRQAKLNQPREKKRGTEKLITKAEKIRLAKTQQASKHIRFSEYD
UniProt Q15121, whole entry: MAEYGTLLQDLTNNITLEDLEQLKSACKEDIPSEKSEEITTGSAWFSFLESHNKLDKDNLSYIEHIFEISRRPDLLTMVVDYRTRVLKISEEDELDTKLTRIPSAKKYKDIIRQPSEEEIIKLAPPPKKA
UniProt Q15648, whole entry: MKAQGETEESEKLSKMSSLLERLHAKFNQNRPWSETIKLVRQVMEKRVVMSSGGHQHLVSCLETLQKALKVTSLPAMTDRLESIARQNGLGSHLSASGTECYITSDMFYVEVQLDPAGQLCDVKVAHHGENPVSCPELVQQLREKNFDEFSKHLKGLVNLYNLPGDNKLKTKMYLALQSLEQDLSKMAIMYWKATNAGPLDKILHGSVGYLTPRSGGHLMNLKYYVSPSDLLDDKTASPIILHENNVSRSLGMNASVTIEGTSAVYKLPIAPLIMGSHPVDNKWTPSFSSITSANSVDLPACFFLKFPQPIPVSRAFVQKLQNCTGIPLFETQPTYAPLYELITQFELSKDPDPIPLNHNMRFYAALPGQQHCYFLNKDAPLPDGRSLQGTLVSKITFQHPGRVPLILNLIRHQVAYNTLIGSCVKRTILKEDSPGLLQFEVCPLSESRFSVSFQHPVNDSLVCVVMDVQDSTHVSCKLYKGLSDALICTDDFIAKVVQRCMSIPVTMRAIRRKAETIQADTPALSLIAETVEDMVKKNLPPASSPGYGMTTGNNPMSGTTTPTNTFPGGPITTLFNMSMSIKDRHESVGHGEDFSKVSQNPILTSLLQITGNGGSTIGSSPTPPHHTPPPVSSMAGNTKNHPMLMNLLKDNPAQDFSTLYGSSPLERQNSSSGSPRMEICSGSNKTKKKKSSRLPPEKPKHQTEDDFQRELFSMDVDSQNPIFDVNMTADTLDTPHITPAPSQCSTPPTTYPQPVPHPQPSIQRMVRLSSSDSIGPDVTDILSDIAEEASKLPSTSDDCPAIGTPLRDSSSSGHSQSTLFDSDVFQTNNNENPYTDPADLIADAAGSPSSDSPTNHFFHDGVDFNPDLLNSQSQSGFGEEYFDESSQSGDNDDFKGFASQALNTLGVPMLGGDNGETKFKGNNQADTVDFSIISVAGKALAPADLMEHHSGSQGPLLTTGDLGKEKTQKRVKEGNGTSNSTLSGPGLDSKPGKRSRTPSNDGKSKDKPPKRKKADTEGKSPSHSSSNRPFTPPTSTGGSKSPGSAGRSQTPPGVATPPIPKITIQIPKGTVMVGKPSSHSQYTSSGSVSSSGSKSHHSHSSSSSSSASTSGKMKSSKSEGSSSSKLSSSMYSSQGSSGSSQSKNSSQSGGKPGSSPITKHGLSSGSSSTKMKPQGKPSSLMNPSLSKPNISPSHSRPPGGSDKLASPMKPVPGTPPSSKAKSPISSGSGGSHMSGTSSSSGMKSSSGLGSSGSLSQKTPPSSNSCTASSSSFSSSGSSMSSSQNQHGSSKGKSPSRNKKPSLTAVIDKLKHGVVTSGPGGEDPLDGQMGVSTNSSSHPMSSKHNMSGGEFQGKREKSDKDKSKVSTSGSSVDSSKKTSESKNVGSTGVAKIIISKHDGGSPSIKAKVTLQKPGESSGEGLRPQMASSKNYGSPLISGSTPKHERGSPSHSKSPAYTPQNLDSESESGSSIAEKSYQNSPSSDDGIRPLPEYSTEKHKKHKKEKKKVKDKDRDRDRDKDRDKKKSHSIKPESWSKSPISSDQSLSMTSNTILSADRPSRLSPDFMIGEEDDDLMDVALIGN
UniProt Q2KHT3: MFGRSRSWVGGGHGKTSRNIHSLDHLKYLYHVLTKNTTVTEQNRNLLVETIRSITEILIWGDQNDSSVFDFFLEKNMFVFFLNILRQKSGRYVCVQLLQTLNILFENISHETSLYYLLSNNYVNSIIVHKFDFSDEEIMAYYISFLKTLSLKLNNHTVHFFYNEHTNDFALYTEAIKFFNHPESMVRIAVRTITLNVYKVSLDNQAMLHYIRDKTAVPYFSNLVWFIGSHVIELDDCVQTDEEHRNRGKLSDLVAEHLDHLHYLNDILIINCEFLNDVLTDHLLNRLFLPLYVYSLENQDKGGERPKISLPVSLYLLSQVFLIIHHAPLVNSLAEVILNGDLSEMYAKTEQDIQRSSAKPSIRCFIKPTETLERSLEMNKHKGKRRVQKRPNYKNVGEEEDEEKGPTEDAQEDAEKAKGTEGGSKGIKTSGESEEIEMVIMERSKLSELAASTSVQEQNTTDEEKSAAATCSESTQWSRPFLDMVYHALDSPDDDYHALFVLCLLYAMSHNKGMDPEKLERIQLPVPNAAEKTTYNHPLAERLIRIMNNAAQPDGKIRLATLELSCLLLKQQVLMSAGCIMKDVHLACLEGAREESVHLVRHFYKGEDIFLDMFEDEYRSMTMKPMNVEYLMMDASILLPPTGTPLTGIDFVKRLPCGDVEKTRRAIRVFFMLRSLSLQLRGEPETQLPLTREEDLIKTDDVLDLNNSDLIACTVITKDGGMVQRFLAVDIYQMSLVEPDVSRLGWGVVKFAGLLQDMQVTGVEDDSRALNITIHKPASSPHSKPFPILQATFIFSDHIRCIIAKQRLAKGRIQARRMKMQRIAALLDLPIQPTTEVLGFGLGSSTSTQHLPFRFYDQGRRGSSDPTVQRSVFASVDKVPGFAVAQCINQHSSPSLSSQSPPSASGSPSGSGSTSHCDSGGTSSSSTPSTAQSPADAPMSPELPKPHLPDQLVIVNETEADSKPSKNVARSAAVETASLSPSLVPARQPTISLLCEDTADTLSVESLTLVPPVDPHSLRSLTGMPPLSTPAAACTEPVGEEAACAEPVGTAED
UniProt Q14677: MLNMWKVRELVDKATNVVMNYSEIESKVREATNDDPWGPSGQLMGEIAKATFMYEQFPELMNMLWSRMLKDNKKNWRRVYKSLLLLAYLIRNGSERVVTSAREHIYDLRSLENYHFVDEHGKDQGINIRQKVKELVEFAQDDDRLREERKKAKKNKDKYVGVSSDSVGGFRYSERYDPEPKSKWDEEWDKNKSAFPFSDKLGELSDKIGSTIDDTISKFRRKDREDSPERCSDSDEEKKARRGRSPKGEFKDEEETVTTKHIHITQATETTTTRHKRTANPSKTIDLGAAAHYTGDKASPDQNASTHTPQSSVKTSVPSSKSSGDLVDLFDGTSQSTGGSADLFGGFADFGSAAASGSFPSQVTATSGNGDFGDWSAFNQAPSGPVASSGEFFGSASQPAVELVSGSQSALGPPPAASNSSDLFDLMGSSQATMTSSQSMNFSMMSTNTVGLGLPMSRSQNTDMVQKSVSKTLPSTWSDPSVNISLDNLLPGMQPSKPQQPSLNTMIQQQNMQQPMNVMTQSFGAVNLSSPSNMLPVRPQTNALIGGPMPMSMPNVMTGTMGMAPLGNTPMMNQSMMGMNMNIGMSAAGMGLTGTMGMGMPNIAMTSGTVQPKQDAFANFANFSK
UniProt Q2T9J0: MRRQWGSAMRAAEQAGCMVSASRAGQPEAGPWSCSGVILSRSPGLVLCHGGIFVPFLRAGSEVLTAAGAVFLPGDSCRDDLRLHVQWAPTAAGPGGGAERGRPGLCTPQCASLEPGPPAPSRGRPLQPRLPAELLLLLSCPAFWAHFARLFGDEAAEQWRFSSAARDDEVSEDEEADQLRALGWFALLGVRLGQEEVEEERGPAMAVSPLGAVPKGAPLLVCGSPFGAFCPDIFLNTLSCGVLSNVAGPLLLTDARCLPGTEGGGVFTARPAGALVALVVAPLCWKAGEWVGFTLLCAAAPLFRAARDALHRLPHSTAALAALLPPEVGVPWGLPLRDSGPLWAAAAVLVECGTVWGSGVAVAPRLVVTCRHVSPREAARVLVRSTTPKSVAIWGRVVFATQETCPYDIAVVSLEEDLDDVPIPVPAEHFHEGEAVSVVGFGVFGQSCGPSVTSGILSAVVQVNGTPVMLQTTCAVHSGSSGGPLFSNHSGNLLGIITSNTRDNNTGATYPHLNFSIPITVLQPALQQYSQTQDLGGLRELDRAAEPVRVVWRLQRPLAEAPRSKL

Compound: Nc1ncnc2c1ncn2[C@@H]1O[C@H](COP(=O)(O)OP(=O)(O)OP(=O)(O)O)[C@@H](O)[C@H]1O [adenosine triphosphate]
Test: NP40-soluble protein abundance relative to vehicle (solubility fold change) (ratio); higher = more soluble protein in presence of ATP
Procedure, shortened: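 Jurkat crude lysate prepared with a Dounce homogeniser was treated at eight concentrations spanning 0.1 to 10 mM, 10 min at room temperature then 3 min at 37 °C. Solubilisation with 0.8% NP40 and benzonase and ultracentrifugation preceded TMT labelling of the supernatant for LC-MS/MS. Fold change against the detergent-processed vehicle was determined per replicate from vsn-normalised intensities, across three independent experiments.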

Target	NP40-soluble protein abundance (concentration: 0.1mM)	NP40-soluble protein abundance (concentration: 0.5mM)	NP40-soluble protein abundance (concentration: 1mM)	NP40-soluble protein abundance (concentration: 2mM)	NP40-soluble protein abundance (concentration: 4mM)	NP40-soluble protein abundance (concentration: 6mM)	NP40-soluble protein abundance (concentration: 8mM)	NP40-soluble protein abundance (concentration: 10mM)
UniProt Q15397	1.06 ± 0.032	1.17 ± 0.018	1.28 ± 0.054	1.39 ± 0.058	1.53 ± 0.073	1.6 ± 0.13	1.7 ± 0.042	1.96 ± 0.12
UniProt Q15036 and related entries	1.08 ± 0.096	0.911 ± 0.12	0.88 ± 0.17	0.835 ± 0.14	0.853 ± 0.15	0.808 ± 0.18	0.808 ± 0.12	0.849 ± 0.16
UniProt Q3KQU3 and related entries	0.944 ± 0.1	0.989 ± 0.12	1.08 ± 0.1	1.03 ± 0.11	1.09 ± 0.13	1.13 ± 0.26	1.1 ± 0.16	1.14 ± 0.13
ZNHIT3 (UniProt Q15649)	0.962 ± 0.13	0.907 ± 0.12						
UniProt Q15906 and related entries	1.03 ± 0.053	1.1 ± 0.047	1.13 ± 0.12	1.13 ± 0.092	1.22 ± 0.12	1.27 ± 0.23	1.24 ± 0.12	1.26 ± 0.13
SF3B3 (UniProt Q15393)	1.05 ± 0.027	1.09 ± 0.024	1.12 ± 0.072	1.11 ± 0.052	1.15 ± 0.072	1.1 ± 0.032	1.188 ± 0.0092	1.19 ± 0.037
UniProt Q4G0J3 and related entries	1.04 ± 0.023	1.1 ± 0.036	1.17 ± 0.046	1.22 ± 0.047	1.36 ± 0.021	1.507 ± 0.0071	1.56 ± 0.049	1.71 ± 0.018
EFTUD2 (UniProt Q15029)	1.01 ± 0.041	1.06 ± 0.069	1.12 ± 0.04	1.16 ± 0.047	1.21 ± 0.047	1.26 ± 0.075	1.41 ± 0.056	1.42 ± 0.12
UniProt Q15121 and related entries	0.904 ± 0.062	0.858 ± 0.072						
MED1 (UniProt Q15648)	0.991 ± 0.047	1.01 ± 0.06						
UniProt Q2KHT3 and related entries	1.02 ± 0.0027	1.05 ± 0.04	1.04 ± 0.045	0.967 ± 0.1	0.963 ± 0.11	0.999 ± 0.093	1.04 ± 0.15	1.02 ± 0.17
UniProt Q14677 and related entries	1.01 ± 0.029	1.04 ± 0.04	1.04 ± 0.042	1.05 ± 0.02	1.04 ± 0.028	1.11 ± 0.027	1.07 ± 0.033	1.09 ± 0.055
TYSND1 (UniProt Q2T9J0)	1.92 ± 0.89	1.001 ± 0.0098	0.977 ± 0.047	0.983 ± 0.058	0.995 ± 0.042	0.947 ± 0.013	0.974 ± 0.032	0.96 ± 0.076
UniProt Q14643 and related entries	1.04 ± 0.041	1.04 ± 0.031	1.05 ± 0.071	0.999 ± 0.065	1 ± 0.041	0.961 ± 0.07	1.02 ± 0.027	0.995 ± 0.045
